Binding data for 2 molecules are collected here from publication PMC3630105.

Protein sequences, listed by entry. Tags and fused reporters are not part of them. Lines headed by an entry give the natural chain unless they say otherwise; changes in a name come on top.
UniProt A1Z9V8: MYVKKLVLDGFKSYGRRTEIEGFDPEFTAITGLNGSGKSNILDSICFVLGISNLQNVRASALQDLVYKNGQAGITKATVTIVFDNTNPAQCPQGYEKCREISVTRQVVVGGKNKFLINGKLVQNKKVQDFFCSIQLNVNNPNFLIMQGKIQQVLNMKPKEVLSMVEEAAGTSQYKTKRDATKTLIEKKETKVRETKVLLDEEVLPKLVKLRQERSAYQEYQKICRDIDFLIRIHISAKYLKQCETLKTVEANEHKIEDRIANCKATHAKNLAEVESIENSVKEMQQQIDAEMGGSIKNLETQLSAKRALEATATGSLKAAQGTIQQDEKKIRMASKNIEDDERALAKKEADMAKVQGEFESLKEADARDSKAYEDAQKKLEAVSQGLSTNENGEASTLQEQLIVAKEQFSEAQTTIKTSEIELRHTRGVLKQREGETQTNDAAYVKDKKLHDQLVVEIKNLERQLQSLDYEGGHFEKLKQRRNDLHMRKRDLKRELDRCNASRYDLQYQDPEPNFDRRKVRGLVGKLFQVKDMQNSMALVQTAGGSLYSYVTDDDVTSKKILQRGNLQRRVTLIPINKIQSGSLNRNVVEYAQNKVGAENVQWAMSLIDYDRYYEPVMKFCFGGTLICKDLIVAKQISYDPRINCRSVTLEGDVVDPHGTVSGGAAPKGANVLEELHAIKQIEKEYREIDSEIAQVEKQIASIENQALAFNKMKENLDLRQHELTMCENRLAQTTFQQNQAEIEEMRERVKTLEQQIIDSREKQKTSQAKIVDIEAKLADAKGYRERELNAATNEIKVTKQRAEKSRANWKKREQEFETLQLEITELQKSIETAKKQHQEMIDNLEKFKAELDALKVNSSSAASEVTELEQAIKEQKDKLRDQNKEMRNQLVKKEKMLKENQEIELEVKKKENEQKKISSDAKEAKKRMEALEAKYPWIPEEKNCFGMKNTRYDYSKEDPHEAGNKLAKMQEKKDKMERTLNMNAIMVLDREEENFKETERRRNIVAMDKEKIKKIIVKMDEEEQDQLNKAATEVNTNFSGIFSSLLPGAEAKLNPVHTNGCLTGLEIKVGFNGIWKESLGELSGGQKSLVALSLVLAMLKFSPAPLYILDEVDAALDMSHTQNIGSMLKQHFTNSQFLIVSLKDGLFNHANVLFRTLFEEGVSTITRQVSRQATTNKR
UniProt Q9VAJ1: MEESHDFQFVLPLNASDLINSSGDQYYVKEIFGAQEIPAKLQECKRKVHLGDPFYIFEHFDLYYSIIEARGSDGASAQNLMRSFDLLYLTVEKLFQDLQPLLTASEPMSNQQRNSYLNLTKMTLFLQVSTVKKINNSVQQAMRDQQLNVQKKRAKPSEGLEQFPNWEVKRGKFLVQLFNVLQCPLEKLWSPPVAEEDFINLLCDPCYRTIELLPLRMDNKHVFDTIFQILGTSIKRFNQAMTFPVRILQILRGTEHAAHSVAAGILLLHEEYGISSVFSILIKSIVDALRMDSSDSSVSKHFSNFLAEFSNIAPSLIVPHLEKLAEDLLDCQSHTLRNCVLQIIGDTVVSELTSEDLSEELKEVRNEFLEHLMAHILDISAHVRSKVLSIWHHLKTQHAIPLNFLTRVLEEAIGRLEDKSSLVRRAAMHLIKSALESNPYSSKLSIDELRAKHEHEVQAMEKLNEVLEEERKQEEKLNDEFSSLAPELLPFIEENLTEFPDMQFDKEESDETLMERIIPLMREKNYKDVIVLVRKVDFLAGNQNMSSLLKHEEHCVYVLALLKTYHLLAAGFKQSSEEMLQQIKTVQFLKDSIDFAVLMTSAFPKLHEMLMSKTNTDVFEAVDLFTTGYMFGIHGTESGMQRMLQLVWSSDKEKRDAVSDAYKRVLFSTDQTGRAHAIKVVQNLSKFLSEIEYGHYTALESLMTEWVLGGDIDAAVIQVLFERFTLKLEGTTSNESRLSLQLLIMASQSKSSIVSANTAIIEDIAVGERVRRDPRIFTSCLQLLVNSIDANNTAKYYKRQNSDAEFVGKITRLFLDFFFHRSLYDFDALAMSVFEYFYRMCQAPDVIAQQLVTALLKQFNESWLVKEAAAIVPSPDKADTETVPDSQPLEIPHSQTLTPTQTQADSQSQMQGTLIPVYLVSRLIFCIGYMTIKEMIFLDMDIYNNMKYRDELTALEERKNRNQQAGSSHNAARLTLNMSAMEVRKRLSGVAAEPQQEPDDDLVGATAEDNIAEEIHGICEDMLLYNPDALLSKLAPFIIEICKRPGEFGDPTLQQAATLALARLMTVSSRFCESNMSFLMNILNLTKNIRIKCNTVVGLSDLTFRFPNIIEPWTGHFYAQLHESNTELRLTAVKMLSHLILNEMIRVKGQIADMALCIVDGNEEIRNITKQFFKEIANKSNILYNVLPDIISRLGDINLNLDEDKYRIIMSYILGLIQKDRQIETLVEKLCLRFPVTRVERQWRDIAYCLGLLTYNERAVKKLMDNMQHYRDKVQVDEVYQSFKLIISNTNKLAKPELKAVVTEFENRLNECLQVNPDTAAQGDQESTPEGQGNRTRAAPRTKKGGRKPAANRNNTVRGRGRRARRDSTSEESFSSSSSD

In assay [1] the target is SMC2h-EGFP (Drosophila melanogaster) (UniProt A1Z9V8). As to the kind of experiment: affinity purification with mass spectrometry; anti-EGFP immunoprecipitates from extracts of embryos or ovaries expressing SMC2h-EGFP; SDS-PAGE, MS.
In assay [2] the target is SMC2 (endogenous) (Drosophila melanogaster (endogenous in embryos and ovaries)) (UniProt A1Z9V8). As to the kind of experiment: affinity purification with mass spectrometry; anti-SMC2 immunoprecipitates from wild type embryo extracts; mock control with beads only; SDS-PAGE, MS.
For assay [3], the target named is Cap-G^FL-mRFP1 (Drosophila melanogaster). As to the kind of experiment: affinity purification with mass spectrometry; anti-mRFP1 immunoprecipitates from extracts of embryos or ovaries expressing Cap-G-mRFP1; SDS-PAGE, gel slices, LTQ Orbitrap; control w^1 ovaries.

Results are given in words; binding and its absence hold for the method and conditions named. Binding seen in cells or lysates may run through a third protein. These calls come from enrichment with a bait or labelling near it, and not all partners need be listed.

Consider “Cap-D2 (endogenous) (from UniProt Q9VAJ1)”, for which the binding result in assay [1] and in assay [2] was “binds” throughout.

B1: Cap-H/Barren (endogenous) (protein, UniProt P91663 1-736)
chain: MTLPRLETPLRRSAVGSYQEGVSRMLTPFNDDEAERREARRRTLLQQHHRSSTLESIEDNETIKNCLELYNGNKVSKDNAWNLMLIDSLANLLDHHHKRMSNFKMAGSSLEASSKVYGLRVDSIYLDAMRISAGLSARTLTDKQINAAEDDDGPQGEQATGEGQDSAQQAAKEAAPKPKRQKKPISTVTKNRETLNSRLDTAPLQDPVFGKLNSTCGASINASNRLMHNILPSFDSELRLRTTYNFWNSEESTEEVQDHTTLNAEMEQWPATSLMSTNLMRKLLPHAERSNLRPLHTGYIITSAPNPKSANEKAAEVVQDEDHDEGLDNADDVCVNKISMAFDINAECEPMPDLDGPPPLVLEVDSNELEELTAEEQMVINNCRRLRKQTEFIEDLRPVDGNSKLEYSYRPMDQISQFWAGPSHWKFKRTRPRSTFSQTNGQVDTQPIRTQRAKKSAHLNANRRAKALDYGNVTENFFQQLDTTIRQRKANFQKKWDPRKLILPTKFELDPDLFFKYESAPSIKLSKRAGEPDSDEGGDLGIDMDADMHHDDDNDQELFNNEHFTDAVPANVSVIAAIAAEQAAEASMMNVSAGEIGLTQMNATCNNTVFEIGTEFEGAPSQVAKVIVPFAKRAKVIDMKNLKKSCNSLIQKQLLNAVPEETIPSHPKKKGEHYSKGFASFQQVYQKLPDLLTTKMSDSLSPSVAFYAVLHLANDLKLRLIPQEDLEDFQIRQVLD
As for B1, the binding entry in assay [1], in assay [3] and in assay [2] was “binds” in each case.
